The source of these data is article PMC6445129.

Protein sequences, listed by entry. Tags and fused reporters are not part of them. Lines headed by an entry give the natural chain unless they say otherwise; changes in a name come on top.
UniProt Q9Y2K7: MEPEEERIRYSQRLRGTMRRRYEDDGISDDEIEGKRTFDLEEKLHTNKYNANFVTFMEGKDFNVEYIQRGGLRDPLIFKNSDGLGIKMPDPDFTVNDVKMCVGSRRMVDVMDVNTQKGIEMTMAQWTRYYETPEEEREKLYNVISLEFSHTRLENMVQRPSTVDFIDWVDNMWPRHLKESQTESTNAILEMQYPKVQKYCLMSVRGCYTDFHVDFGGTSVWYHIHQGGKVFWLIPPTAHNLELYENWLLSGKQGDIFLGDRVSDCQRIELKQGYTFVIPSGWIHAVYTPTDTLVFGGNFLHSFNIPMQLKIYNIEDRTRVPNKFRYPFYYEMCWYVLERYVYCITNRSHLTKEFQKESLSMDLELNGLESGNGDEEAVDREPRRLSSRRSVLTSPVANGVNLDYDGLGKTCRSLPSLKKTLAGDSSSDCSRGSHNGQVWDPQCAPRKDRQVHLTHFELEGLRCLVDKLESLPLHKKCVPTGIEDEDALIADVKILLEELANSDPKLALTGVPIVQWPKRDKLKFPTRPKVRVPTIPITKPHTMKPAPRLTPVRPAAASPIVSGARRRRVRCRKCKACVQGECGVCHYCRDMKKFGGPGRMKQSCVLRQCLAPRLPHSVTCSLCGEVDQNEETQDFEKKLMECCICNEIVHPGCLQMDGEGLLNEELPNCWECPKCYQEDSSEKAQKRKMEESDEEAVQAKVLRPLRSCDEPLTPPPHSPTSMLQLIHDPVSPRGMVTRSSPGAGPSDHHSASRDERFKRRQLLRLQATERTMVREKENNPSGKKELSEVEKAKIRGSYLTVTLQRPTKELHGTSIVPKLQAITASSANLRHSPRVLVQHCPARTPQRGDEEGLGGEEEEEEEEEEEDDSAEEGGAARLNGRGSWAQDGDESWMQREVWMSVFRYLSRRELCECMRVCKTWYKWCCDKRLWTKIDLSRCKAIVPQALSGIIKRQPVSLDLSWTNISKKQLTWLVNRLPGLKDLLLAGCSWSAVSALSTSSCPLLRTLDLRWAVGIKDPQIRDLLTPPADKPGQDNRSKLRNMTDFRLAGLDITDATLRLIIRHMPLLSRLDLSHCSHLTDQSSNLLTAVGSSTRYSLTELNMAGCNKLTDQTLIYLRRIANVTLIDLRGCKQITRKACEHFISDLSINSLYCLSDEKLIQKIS
UniProt P13010: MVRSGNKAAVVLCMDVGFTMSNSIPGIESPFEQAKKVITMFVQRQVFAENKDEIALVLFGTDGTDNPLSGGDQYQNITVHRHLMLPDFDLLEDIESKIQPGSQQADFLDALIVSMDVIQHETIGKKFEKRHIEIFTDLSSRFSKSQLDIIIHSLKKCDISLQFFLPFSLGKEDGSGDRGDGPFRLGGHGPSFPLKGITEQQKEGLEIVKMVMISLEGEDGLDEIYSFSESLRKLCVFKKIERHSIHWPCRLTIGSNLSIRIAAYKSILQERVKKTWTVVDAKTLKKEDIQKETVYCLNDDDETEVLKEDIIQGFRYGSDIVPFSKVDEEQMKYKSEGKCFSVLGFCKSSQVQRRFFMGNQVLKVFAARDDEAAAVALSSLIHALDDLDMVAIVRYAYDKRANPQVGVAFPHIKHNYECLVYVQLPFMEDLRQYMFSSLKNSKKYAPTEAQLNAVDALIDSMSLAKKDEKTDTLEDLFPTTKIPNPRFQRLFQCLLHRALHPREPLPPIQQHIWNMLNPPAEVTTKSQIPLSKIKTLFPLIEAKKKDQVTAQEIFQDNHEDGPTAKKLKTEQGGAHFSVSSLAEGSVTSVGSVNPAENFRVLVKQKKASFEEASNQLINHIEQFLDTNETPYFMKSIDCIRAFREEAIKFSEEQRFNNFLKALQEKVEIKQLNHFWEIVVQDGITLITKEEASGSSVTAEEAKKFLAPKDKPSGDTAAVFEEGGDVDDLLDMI

These are yes or no findings as the source states them, for the method shown. In cells and extracts the contact can be indirect. For some assays here: A result given as binding can be weak or reduced; the word gives no strength.

In one experiment the target is EGFP-N782ΔCXXC (human) (UniProt Q9Y2K7). Kind of experiment: co-IP; rabbit anti-GFP on protein A magnetic beads, lysates of keratinocytes expressing EGFP-N782 or its deletion mutants; Western blot of XRCC5.
In a further experiment the target is EGFP-N782ΔJmjC (human) (UniProt Q9Y2K7). The experiment is described as above.

For the substance “X-ray repair cross-complementing protein 5 (XRCC5), endogenous (from UniProt P13010 1-732)”, the results for the binding entry in the experiment with EGFP-N782ΔCXXC (human) and with EGFP-N782ΔJmjC (human) were “no binding” and “binds”, respectively.
